Results are given in words; binding and its absence hold for the method and conditions named. Binding seen in cells or lysates may run through a third protein. These calls come from enrichment with a bait or labelling near it, and not all partners need be listed.
How the values were obtained:
[1] = molecular target: tagged (Flag-HA) cyclin E1 of knock-in mice, end of the tag not told for the experiment or an about 1:1 mixture of the N- and C-terminally tagged forms (mouse) (UniProt Q61457); test: affinity purification with mass spectrometry; sequential immunoaffinity purification (anti-Flag M2 agarose, Flag peptide elution, then anti-HA 12CA5 beads) from embryonic brains, adult brains, spleens, thymuses and testes, about 1:1 mixture of organs of N- and C-tagged cyclin E1 knock-in mice; LC-MS/MS, 6-10 runs per organ; mock purifications from wild-type mice subtracted
[2] = molecular target: N-terminally Flag- and HA-tagged cyclin E1 (cyclin E1^Ntag knock-in allele) (mouse) (UniProt Q61457); test: affinity purification with mass spectrometry; sequential anti-Flag and anti-HA purification from spleens and thymuses of cyclin E1 Ntag/Ntag and Cdk2-/-/cyclin E1 Ntag/Ntag mice, iTRAQ labelling and quantitative LC-MS

By UniProt entry, the sequences of proteins in these tests, tags left out.
UniProt P97929: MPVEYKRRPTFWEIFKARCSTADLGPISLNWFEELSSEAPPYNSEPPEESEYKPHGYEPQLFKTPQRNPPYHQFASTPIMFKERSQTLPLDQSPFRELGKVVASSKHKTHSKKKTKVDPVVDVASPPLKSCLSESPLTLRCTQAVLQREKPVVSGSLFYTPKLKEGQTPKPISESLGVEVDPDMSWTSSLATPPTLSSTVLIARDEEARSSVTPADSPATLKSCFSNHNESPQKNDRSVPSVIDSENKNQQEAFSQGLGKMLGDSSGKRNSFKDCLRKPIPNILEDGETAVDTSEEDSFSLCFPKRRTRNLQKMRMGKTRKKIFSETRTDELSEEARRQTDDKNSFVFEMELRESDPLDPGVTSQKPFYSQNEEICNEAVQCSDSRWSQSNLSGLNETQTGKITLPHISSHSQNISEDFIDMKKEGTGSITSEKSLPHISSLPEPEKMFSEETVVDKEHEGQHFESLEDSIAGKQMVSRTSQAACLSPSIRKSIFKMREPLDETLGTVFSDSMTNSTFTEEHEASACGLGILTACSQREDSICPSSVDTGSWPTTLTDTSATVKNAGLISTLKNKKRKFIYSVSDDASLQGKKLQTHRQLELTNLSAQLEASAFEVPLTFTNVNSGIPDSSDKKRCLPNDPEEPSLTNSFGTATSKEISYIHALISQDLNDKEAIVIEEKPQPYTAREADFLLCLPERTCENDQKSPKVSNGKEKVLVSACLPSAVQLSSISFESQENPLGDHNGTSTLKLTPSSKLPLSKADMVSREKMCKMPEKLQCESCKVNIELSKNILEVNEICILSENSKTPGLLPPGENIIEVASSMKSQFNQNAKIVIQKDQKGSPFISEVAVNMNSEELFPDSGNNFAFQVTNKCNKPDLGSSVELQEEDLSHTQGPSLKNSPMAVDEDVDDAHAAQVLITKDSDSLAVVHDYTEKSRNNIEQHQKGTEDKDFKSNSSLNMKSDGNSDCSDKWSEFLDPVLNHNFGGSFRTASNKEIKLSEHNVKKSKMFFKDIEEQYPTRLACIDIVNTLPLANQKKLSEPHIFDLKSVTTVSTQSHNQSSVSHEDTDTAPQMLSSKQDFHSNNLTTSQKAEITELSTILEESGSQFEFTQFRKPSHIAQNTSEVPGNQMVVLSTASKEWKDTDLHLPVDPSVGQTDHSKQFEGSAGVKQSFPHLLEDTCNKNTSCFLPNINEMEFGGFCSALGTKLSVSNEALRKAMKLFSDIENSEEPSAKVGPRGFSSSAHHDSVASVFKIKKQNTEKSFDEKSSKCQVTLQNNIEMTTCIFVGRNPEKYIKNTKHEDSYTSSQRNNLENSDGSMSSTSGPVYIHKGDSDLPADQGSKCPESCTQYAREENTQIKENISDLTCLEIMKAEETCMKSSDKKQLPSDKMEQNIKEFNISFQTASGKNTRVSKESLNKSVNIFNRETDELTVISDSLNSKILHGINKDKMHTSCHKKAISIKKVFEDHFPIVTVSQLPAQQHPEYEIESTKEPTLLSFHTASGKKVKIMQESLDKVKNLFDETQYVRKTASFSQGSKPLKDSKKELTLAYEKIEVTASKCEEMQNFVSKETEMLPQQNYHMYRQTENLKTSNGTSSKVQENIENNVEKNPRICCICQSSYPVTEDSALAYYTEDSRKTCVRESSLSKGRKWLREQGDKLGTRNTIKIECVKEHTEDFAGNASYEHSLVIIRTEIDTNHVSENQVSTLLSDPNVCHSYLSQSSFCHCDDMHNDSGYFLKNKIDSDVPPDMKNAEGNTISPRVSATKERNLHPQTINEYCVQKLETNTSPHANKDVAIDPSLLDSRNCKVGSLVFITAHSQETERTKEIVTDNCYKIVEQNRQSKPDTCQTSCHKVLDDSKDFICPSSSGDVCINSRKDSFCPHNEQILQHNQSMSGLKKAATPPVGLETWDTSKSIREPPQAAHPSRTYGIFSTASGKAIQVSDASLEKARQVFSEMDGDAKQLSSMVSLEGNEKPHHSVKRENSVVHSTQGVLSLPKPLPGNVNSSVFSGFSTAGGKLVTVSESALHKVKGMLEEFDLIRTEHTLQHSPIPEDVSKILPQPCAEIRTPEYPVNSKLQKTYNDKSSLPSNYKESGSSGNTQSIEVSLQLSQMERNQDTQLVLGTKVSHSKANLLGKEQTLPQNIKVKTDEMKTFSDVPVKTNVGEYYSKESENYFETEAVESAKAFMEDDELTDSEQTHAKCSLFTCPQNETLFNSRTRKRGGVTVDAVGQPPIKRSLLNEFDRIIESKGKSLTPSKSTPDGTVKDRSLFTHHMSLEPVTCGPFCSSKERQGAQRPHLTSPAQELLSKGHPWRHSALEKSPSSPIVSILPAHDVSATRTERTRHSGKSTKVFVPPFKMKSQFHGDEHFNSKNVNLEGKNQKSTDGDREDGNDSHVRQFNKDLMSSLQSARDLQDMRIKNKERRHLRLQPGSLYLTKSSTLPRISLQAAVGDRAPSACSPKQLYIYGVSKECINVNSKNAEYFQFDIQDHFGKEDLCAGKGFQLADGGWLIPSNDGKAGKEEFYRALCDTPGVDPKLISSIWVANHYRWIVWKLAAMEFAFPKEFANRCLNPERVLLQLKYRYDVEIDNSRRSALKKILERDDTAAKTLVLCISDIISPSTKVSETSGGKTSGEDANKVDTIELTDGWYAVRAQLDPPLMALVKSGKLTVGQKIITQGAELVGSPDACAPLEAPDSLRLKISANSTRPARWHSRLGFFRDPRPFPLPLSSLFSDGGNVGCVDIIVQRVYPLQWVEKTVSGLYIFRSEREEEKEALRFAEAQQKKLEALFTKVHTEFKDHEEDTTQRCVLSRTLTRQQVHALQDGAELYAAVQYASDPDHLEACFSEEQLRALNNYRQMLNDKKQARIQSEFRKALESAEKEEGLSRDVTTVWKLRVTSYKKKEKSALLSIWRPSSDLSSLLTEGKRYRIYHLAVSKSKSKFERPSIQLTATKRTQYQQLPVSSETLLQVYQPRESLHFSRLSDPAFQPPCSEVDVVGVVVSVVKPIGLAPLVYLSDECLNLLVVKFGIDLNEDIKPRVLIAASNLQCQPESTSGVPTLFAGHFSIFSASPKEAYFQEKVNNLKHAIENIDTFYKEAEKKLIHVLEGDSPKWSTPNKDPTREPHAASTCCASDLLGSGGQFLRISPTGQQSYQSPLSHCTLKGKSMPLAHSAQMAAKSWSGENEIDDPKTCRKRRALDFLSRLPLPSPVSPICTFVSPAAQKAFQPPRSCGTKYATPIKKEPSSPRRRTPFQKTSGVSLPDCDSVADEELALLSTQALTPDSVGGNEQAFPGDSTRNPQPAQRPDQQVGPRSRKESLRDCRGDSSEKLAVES
UniProt Q8CGW9: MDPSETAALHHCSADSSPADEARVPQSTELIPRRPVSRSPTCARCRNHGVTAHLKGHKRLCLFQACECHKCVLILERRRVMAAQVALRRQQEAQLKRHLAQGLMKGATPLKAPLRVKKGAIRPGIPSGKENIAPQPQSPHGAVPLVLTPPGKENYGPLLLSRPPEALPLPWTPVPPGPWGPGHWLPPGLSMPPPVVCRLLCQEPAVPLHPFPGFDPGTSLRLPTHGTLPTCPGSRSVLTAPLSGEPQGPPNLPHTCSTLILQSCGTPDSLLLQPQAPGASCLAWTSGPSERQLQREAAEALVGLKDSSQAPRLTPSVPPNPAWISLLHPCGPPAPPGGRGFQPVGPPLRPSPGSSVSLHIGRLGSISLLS
UniProt P51960: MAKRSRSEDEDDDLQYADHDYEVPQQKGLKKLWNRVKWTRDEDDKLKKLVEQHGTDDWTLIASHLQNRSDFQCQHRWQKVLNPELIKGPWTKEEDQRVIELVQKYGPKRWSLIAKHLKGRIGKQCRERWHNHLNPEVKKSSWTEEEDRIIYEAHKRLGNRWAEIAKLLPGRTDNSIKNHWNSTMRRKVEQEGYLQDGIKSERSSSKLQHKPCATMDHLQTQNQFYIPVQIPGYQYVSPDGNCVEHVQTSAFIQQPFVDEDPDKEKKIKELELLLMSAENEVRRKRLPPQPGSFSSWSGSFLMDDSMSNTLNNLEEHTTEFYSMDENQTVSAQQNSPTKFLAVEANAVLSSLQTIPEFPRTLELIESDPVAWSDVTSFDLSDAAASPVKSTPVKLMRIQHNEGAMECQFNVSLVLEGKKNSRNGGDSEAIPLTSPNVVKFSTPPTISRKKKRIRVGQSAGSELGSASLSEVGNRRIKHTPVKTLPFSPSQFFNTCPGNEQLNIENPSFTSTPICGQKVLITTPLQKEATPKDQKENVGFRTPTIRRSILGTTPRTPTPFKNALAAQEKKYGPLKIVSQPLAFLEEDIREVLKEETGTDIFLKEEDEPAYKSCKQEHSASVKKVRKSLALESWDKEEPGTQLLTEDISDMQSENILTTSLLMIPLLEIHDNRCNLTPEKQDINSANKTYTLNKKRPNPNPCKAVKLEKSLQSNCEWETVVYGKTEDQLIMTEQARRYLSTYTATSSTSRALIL

Substance | binding [1] | binding [2]
Brca2, mouse (from UniProt P97929 1-3329) | binds | 
Cdk5, mouse (from UniProt P49615 1-292) (enzyme) | binds | binds
Dmrtc2, mouse (endogenous) (from UniProt Q8CGW9 1-370) | binds | 
Mybl1, mouse (endogenous) (from UniProt P51960 1-751) | binds | 
